Binding screen against folded nucleic acids

Targets (5′ to 3′):
T1: PreQ1 riboswitch RNA pseudoknot, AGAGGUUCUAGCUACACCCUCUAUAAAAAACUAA. From B. subtilis. About 170 hits among about 24,000 compounds.
T2: SAM-II riboswitch RNA pseudoknot, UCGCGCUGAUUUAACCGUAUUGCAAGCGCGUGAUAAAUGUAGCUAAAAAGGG. About 200 hits among about 21,000 compounds.
T3: TPP riboswitch RNA three-way junction, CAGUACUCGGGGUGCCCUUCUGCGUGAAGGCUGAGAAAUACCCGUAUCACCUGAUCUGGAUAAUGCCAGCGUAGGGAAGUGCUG. About 160 hits among about 24,000 compounds.

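The test is a small-molecule microarray: each compound is printed twice on a reactive slide, and binding shows as fluorescence of the labelled oligonucleotide after washing. For the PreQ1, TPP and SAM-II riboswitches the laboratory earlier reported (doi:10.1038/s41467-019-09493-3) 1 µM RNA, 2 h, and a rule that included a mean Z-score above 3 (spot signal-to-noise against the whole library), a score well above that on a control array, and duplicate spots agreeing (coefficient of variation under 100). The data file gives only the calls; its cut-offs may differ, and compounds hitting several targets are kept. These are primary screening calls, not affinities; a compound without a hit may have attached poorly or may still bind in solution.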 Key: hit = hit, none = tested without a hit. Compounds were drawn at random from those tested, without regard to their results. A dash means that no call is listed here.

| structure | T1 | T2 | T3 |
|---|---|---|---|
| `Nc1cccc(S(=O)(=O)N2CCCN(S(=O)(=O)c3ccc4c(c3)OCCO4)CC2)c1` | none | none | none |
| `Nc1c(C(=O)NCCc2c[nH]c3ccccc23)sc2nc3c(cc12)N1CCC3CC1` | none | none | none |
| `Cc1nn(-c2nc(CC(=O)NCCO)cs2)c(C)c1Cl` | none | - | none |
| `COC(=O)C1=C(C)NC(C)=C(C(=O)OC)C(N2C(=O)CCC2=O)C1` (centres unmarked) | none | none | none |
| `Cc1cc(C(=O)N2CCC(c3nnc(CN(C)CCO)n3C)CC2)on1` | none | none | none |
| `CCOc1ccccc1CNc1nc2cc(C)ccc2cc1-c1noc(C)n1` | none | - | none |
| `CCC(C(=O)NCc1nc(N)nc(N(C)C)n1)n1cccn1` (centres unmarked) | none | none | none |
| `O=C(Nc1ccccc1-c1ccccc1)N1CC[C@H]2NCCC[C@]2(CO)C1` | none | none | none |
| `O=C1C2CC3N1CCC31c3ccccc3-n3c1c2ccc3=O` (centres unmarked) | none | none | none |
| `COCc1n[nH]c2c1C(c1ccc(C(C)C)cc1)C(C#N)=C(N)O2` (centres unmarked) | none | none | none |
| `Nc1ncnc2c1c(-c1cccc(OCc3ccccc3)c1)cn2C1CC(CN2CCC2)C1` (centres unmarked) | none | none | none |
| `Oc1ccc2c(ccc3nc[nH]c32)c1` | none | none | none |
| `Cc1ncc2c(c1CNC(=O)C(C)Oc1ccccc1)CCNC2` (centres unmarked) | none | none | none |
| `COc1ccc(C2=C(C)C(NC(C)c3ccccc3)=NS2(=O)=O)cc1` (centres unmarked) | none | - | none |
| `O=S(=O)(c1ccc2c(c1)CCN2)N1CCOCC1` | none | none | none |
| `CN(C)CCc1ccc(O)cc1` | none | none | none |
| `Cc1cc(C)c2[nH]c(C)c(CC(=O)N3CCC(C(O)c4nccn4C)CC3)c2c1` (centres unmarked) | none | none | none |
| `Cc1nc(Cn2nc(C3CCNCC3)n(-c3ccccc3)c2=O)sc1C` | none | none | none |
| `O=C1c2[nH]nc(-c3ccccc3O)c2C(c2cccc(OCc3ccccc3)c2)N1CCCO` (centres unmarked) | none | - | none |
| `O=c1[nH]c(NCc2cnn(Cc3ccccc3)c2)nc2c1CCNC2` | none | none | none |
| `CCNc1c(NS(=O)(=O)c2ccc(F)cc2)c(=O)oc2ccccc12` | none | none | none |
| `CN(CC(=O)N1CCn2nc(Cc3ccccc3)cc2C1)C1CCNCC1` | none | none | none |
| `CSc1nc(-c2cccc(C)c2)nc2c1Cc1c(CO)cnc(C)c1O2` | none | - | none |
| `Cc1ccc(C2C(C#N)=C(N)Oc3c2ccc2ccccc32)cc1` (centres unmarked) | none | none | none |
| `CC(=O)Nc1sc2c(c1C(c1cccc(F)c1)N1CCN(CCO)CC1)CCCC2` (centres unmarked) | none | none | none |
| `C=CCOc1ccc(C2C(C#N)=C(N)Oc3c2c(=O)oc2ccccc32)cc1` (centres unmarked) | none | none | none |
| `CCCc1nn(C)c2c(=O)nc(-c3cc(S(=O)(=O)N4CCN(C)CC4)ccc3OCC)[nH]c12` | none | none | none |
| `COc1ccc(-c2nc(NCCc3c[nH]c4cc(OC)ccc34)sc2C)cc1` | none | - | none |
| `COCCCn1c(C)c(C)c(S(=O)(=O)c2ccc(Cl)cc2)c1N` | none | none | none |
| `Brc1ccccc1CN1CCNCC1.O=C(O)C(F)(F)F` | none | none | none |
| `CCCCC(=O)C1=C(NCCc2c(C)[nH]c3ccccc23)CCCC1=O` | none | none | none |
| `COc1c(/C=N/NC(N)=O)c(OC)c(OC)c2c1CCO2` | none | none | none |
| `CCCNc1nc(-c2ccc(OC)c(OC)c2)no1` | none | - | none |
| `C[C@@H]1[C@@H](C(=O)C[C@H]2O[C@@H]3O[C@]4(C)CC[C@@H]5[C@H](C)CC[C@@H]([C@H]2C)[C@@]35OO4)O[C@@H]2O[C@]3(C)CC[C@H]4[C@H](C)CC[C@@H]1[C@@]24OO3` | none | none | none |
| `CN1C[C@H](NC2CCN(c3ncnc4ccsc34)CC2)C[C@H]1CO` | none | none | none |
| `COc1ccc2c(C)c(CC(C)O)c(=O)oc2c1` (centres unmarked) | none | none | none |
| `Cc1cc(OCC(O)CNC(=O)c2n[nH]c3c2CCCC3)ccc1Cl` (centres unmarked) | none | none | none |
| `Cc1nc2ccc(Cl)cn2c1[N+](=O)[O-]` | none | none | none |
| `NC(=O)c1c(N)sc2c1CCCCCCCCCC2` | none | hit | hit |
| `CCCC(O)c1nc2ccccc2n1CCCOc1ccccc1C` (centres unmarked) | none | - | none |
| `OC1CN(c2cc(C(F)(F)F)nc(N3CCCC3)n2)Cc2ccccc21` (centres unmarked) | none | none | none |
| `COc1cc(NC2=NS(=O)(=O)c3ccccc32)c(OC)cc1Cl` | none | none | none |
| `Cc1ccc(NC(=O)c2sc3ncccc3c2N)cc1F` | none | none | none |
| `Nc1nc(CCNC(=O)c2cccc(CC3CCNCC3)c2)cs1` | none | none | none |
| `Cc1ccc(C(C)C)c(OCC(O)CN2CCN(C)CC2)c1.Cl.Cl` (centres unmarked) | none | none | none |
| `Nc1ccc2[nH]c(=O)[nH]c2c1` | none | none | none |
| `CC(=O)N1CCN(CC(O)Cn2c3ccccc3c3ccccc32)CC1` (centres unmarked) | none | none | none |

Once more, the final 3:

structure	T1	T2	T3
Cc1ccc(C(C)C)c(OCC(O)CN2CCN(C)CC2)c1.Cl.Cl (centres unmarked)	none	none	none
Nc1ccc2[nH]c(=O)[nH]c2c1	none	none	none
CC(=O)N1CCN(CC(O)Cn2c3ccccc3c3ccccc32)CC1 (centres unmarked)	none	none	none

Source: the ROBIN nucleic acid binder screens (doi:10.1002/anie.202211358).